Strings that start with PEPTIDE1 are HELM notation: dots part the residues, brackets hold end groups and non-standard residues. Square brackets hold non-standard residues; d marks the D form. Phe(4-NH2) = Nc1ccc(C[C@H](N)C(=O)O)cc1; 1Nal = N[C@@H](Cc1cccc2ccccc12)C(=O)O

The values that follow come from US6664231B1 (priority 1993, dated 2003).

The nature of the data set: general procedure: Fmoc solid-phase peptide synthesis; polystyrene resin, 1% DVB, Fmoc-Rink amide linker, 0.44 mmoles/gram; DIC/HOBt and HBTU/HOBt/DIEA (double coupling). The conditions noted are these: whole synthesis, scale of the general procedure between 0.1 grams and 5 grams of starting resin.
For the substance H-KSKVGWLIFLFHKKKSKVGWLIQLFHKK-NH2, the “crude HPLC purity” value was found to be 59%.

“PEPTIDE1{K.K.V.L.I.Q.L.K.K.[am]}$$$$V2.0”: the “crude HPLC purity” value is reported as 69%.

As for “H-KSKVGWLIQLFHK[1Nal]-NH2 (SMILES CC[C@H](C)[C@H](NC(=O)[C@H](CC(C)C)NC(=O)[C@H](Cc1c[nH]c2ccccc12)NC(=O)CNC(=O)[C@@H](NC(=O)[C@H](CCCCN)NC(=O)[C@H](CO)NC(=O)[C@@H](N)CCCCN)C(C)C)C(=O)N[C@@H](CCC(N)=O)C(=O)N[C@@H](CC(C)C)C(=O)N[C@@H](Cc1ccccc1)C(=O)N[C@@H](Cc1c[nH]cn1)C(=O)N[C@@H](CCCCN)C(=O)N[C@@H](Cc1cccc2ccccc12)C(N)=O)”, the “crude HPLC purity” value came out at 73%.

Ac-PWLIQLFHKK-OH: the “crude HPLC purity” value came out at 72% and the “final HPLC purity” value is greater than 99%.

Consider H-KSKVKALIQLFHKK-NH2, for which the “crude HPLC purity” value is 75%.

Take H-GWLIQLFHKKIESALRNKMNS-NH2: the “crude HPLC purity” value was 28%.

In the case of 150-161, P @ 152 (G) (KVPWLIQLFHKK), the “final HPLC purity” value came out at 98%.

On to H-KSKVGWLIKLFHKK-NH2, for which the “crude HPLC purity” value is reported as 50%.

As to H-KSKVAWLIQLFHKK-NH2, the “crude HPLC purity” value turned out to be 72%.

Turning to H-ASKVGWLIQLFHKK-NH2, the “crude HPLC purity” value is 68%.

Consider H-KSKAGWLIQLFHKK-NH2, for which the “crude HPLC purity” value came out at 51%.

As for H-KSKVKWLIKLFFKFKSKVKWLIKLFFKF-NH2, the “crude HPLC purity” value was found to be 16%.

Regarding “PEPTIDE1{K.S.K.V.G.V.A.I.Q.L.F.H.K.K.[am]}$$$$V2.0”, the “crude HPLC purity” value is 62% and the “final HPLC purity” value was determined as 95%.

Regarding H-KSKVGWLILLFHKK-NH2, the “crude HPLC purity” value turned out to be 51%.

As for H-KKKWLIQLKKK-NH2, the “crude HPLC purity” value turned out to be 65% and the “final HPLC purity” value amounted to 98%.

As for H-KSKVGWLIQLFHKKKSKVGWLIFLFHKK-NH2, the “crude HPLC purity” value was determined as 40%.

Take “H-KSKVG[dA]LIQLFHKK-NH2 (SMILES CC[C@H](C)[C@H](NC(=O)[C@H](CC(C)C)NC(=O)[C@@H](C)NC(=O)CNC(=O)[C@@H](NC(=O)[C@H](CCCCN)NC(=O)[C@H](CO)NC(=O)[C@@H](N)CCCCN)C(C)C)C(=O)N[C@@H](CCC(N)=O)C(=O)N[C@@H](CC(C)C)C(=O)N[C@@H](Cc1ccccc1)C(=O)N[C@@H](Cc1c[nH]cn1)C(=O)N[C@@H](CCCCN)C(=O)N[C@@H](CCCCN)C(N)=O)”: the “crude HPLC purity” value came to 52%.

Take H-PWAIQLFHKK-NH2: the “final HPLC purity” value was determined as 93%.

With “H-KSKVGWLI[Phe(4-NH2)][1Nal]FHKK-NH2 (SMILES CC[C@H](C)[C@H](NC(=O)[C@H](CC(C)C)NC(=O)[C@H](Cc1c[nH]c2ccccc12)NC(=O)CNC(=O)[C@@H](NC(=O)[C@H](CCCCN)NC(=O)[C@H](CO)NC(=O)[C@@H](N)CCCCN)C(C)C)C(=O)N[C@@H](Cc1ccc(N)cc1)C(=O)N[C@@H](Cc1cccc2ccccc12)C(=O)N[C@@H](Cc1ccccc1)C(=O)N[C@@H](Cc1c[nH]cn1)C(=O)N[C@@H](CCCCN)C(=O)N[C@@H](CCCCN)C(N)=O)”, the “crude HPLC purity” value is listed as 30%.

Regarding “PEPTIDE1{K.S.K.V.G.[dF].L.I.Q.L.F.H.K.K.[am]}$$$$V2.0”, the “crude HPLC purity” value worked out at 51%.

For the substance H-KSKVGWLINLFHKK-NH2, the “crude HPLC purity” value was 68%.

On to H-KSKVGWLIQLFFKK-NH2, for which the “crude HPLC purity” value is recorded as 59%.

Take H-KSKVGKLIQLFHKK-NH2: the “crude HPLC purity” value is listed as 70%.

On to H-KSKVGWLIQAFHKK-NH2, for which the “crude HPLC purity” value was 53%.

Consider H-KSKVGWLIQLFHKKKSKVGWLIQLFHKK-NH2, for which the “crude HPLC purity” value is 26%.

Consider “H-KSKVG[dV]LIQLFHKK-NH2 (SMILES CC[C@H](C)[C@H](NC(=O)[C@H](CC(C)C)NC(=O)[C@H](NC(=O)CNC(=O)[C@@H](NC(=O)[C@H](CCCCN)NC(=O)[C@H](CO)NC(=O)[C@@H](N)CCCCN)C(C)C)C(C)C)C(=O)N[C@@H](CCC(N)=O)C(=O)N[C@@H](CC(C)C)C(=O)N[C@@H](Cc1ccccc1)C(=O)N[C@@H](Cc1c[nH]cn1)C(=O)N[C@@H](CCCCN)C(=O)N[C@@H](CCCCN)C(N)=O)”, for which the “crude HPLC purity” value is listed as 51%.
